From patent US20210032313A1 come the findings set out here.

This test has as its target T1, bTrypsin.
T1 sequence: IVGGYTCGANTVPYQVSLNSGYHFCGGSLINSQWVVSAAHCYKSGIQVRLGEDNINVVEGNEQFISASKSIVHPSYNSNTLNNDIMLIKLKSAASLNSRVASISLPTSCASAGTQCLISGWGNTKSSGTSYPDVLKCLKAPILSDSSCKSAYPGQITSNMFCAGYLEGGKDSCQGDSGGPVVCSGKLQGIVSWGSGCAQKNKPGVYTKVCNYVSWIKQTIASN
Description: fluorogenic peptide substrate cleavage, 1 µM inhibitor.

These are yes or no findings as the source states them, for the method shown. Some results given as binding are weak or reduced against the parent protein; the word gives no strength.

B1: KLK5 inhibitory peptide K50062 (peptide)
chain: GPQFGLFSKYRTPNCQQYRELGCGRQYDPVCGSDMSTYANECTLCMKIREGGHNIKIIRNGPCGG
On to B1, for which the binding entry was “binds”.

B2: KLK5 inhibitory peptide K51090 (peptide)
chain: GPQFGLFSKYRTPNCDEIGKYGCGRSYDPVCGSDMSTYANECTLCMKIREGGHNIKIIRNGPCGG
Consider B2, for which the binding result is given as “binds”.

B3: KLK5 inhibitory peptide K51034 (peptide)
chain: GPQFGLFSKYRTPNCGRYTTGGCNKEYEPVCGSDMSTYANECTLCMKIREGGHNIKIIRNGPCGG
In the case of B3, the binding entry is “binds”.

B4: KLK5 inhibitory peptide K50098 (peptide)
chain: GPQFGLFSKYRTPNCTSQTLGSCSREYDPVCGSDMSTYANECTLCMKIREGGHNIKIIRNGPCGG
As to B4, the binding entry is reported as “binds”.
